Source: the supplement of paper PMC10849652
Some of the results follow.

The chains behind the UniProt entries cited, without tags or fusion partners. Where a name states a change or a piece, a line headed by the entry shows the natural chain unless it says otherwise.
UniProt Q13424: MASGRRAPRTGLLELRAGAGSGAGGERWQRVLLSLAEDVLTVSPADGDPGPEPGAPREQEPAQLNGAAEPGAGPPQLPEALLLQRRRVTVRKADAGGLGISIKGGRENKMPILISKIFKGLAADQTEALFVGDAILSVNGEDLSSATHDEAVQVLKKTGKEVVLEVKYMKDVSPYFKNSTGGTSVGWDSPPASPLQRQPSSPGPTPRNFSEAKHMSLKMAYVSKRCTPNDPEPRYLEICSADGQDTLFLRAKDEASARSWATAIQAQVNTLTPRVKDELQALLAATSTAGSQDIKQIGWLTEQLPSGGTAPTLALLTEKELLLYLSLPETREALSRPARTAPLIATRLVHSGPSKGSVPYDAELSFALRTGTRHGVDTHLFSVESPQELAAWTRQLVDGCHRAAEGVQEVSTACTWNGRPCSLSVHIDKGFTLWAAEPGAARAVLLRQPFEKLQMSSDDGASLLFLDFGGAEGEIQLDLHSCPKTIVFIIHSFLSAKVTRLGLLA
UniProt Q96H20: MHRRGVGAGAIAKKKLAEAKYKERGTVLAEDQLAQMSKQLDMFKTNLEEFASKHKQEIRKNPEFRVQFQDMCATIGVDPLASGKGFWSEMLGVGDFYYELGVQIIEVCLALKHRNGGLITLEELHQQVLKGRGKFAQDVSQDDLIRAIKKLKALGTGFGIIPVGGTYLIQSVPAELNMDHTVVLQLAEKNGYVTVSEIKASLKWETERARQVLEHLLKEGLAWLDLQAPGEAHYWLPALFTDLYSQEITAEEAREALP
UniProt Q3SY56: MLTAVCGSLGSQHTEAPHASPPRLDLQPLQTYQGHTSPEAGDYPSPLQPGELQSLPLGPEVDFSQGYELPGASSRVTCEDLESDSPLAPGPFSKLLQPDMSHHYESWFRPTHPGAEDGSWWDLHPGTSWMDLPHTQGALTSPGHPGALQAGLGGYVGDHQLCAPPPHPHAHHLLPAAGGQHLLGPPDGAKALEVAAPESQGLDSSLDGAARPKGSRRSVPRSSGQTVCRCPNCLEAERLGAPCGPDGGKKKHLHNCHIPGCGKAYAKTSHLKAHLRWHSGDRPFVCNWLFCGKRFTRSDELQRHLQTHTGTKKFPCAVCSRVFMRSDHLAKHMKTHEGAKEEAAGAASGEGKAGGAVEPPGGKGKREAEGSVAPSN
UniProt Q5SQN1: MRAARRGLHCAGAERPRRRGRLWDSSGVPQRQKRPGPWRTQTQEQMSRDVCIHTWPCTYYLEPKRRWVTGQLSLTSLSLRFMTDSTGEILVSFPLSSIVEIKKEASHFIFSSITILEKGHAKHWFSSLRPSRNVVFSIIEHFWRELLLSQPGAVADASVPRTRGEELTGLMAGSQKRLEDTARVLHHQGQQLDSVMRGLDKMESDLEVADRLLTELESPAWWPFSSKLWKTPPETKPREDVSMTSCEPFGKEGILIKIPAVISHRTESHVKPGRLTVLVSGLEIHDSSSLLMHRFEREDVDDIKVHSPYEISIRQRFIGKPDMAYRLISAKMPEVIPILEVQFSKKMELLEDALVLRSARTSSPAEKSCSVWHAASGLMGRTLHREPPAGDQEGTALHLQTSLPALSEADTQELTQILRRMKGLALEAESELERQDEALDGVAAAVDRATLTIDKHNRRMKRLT
UniProt Q5VWJ9: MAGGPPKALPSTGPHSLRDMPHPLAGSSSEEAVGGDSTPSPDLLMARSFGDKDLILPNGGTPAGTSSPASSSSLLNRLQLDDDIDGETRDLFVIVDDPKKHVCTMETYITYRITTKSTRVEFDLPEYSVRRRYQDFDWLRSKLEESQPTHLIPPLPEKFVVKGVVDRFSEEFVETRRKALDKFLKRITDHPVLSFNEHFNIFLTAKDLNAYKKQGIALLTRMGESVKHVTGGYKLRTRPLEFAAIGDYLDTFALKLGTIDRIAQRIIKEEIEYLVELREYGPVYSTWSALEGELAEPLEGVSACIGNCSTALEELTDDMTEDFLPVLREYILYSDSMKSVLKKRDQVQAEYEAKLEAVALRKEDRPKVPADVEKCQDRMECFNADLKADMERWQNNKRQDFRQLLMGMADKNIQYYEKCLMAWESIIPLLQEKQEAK
UniProt O60906: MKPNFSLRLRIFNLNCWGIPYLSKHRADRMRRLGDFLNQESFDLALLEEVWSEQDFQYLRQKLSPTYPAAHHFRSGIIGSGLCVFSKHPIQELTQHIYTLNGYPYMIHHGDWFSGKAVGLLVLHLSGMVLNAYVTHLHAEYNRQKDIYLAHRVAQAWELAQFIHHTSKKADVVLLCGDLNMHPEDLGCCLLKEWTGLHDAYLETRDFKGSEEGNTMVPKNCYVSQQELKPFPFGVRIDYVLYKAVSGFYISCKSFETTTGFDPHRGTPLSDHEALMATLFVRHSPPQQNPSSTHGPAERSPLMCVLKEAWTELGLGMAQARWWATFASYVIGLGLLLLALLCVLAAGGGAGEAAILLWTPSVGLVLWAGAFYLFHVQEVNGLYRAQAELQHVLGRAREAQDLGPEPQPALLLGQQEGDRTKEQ
UniProt O95149, whole entry, looked up: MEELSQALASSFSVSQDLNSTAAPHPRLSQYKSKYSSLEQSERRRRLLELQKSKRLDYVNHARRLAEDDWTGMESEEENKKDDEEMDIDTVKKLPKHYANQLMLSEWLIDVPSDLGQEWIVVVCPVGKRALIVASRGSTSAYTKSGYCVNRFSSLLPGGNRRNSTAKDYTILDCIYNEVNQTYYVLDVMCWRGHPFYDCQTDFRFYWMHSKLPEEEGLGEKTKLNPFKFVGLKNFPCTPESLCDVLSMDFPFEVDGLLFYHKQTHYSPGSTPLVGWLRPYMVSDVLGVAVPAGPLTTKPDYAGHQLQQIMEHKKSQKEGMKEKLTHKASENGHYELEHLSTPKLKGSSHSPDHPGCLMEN
UniProt B2RUZ4: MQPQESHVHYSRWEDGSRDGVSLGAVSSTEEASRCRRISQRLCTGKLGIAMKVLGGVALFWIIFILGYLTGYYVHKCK
UniProt P02814: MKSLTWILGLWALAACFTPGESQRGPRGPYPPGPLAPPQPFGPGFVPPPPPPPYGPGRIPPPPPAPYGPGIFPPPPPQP
UniProt Q8WVI0: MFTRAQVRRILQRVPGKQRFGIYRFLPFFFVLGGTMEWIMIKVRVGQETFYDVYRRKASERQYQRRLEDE
UniProt Q92485: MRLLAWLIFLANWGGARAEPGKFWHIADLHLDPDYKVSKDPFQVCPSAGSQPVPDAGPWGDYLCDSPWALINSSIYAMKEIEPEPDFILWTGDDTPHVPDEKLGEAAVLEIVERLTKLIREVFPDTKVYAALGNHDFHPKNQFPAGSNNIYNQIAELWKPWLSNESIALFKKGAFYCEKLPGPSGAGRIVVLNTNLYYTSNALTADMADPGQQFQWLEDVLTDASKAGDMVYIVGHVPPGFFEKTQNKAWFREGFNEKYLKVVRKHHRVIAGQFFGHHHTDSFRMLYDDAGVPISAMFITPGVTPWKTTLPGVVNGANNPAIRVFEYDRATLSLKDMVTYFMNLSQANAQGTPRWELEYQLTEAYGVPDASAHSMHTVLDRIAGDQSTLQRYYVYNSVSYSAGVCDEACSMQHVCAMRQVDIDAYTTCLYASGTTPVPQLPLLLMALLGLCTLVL
UniProt Q9H4I9: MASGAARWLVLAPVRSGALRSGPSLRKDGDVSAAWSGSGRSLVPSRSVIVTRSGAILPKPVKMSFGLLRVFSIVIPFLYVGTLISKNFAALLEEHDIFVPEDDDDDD
UniProt Q15506: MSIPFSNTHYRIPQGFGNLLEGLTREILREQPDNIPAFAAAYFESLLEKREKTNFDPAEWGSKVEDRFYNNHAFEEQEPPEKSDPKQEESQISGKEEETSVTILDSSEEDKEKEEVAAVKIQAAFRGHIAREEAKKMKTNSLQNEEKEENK
UniProt P35712: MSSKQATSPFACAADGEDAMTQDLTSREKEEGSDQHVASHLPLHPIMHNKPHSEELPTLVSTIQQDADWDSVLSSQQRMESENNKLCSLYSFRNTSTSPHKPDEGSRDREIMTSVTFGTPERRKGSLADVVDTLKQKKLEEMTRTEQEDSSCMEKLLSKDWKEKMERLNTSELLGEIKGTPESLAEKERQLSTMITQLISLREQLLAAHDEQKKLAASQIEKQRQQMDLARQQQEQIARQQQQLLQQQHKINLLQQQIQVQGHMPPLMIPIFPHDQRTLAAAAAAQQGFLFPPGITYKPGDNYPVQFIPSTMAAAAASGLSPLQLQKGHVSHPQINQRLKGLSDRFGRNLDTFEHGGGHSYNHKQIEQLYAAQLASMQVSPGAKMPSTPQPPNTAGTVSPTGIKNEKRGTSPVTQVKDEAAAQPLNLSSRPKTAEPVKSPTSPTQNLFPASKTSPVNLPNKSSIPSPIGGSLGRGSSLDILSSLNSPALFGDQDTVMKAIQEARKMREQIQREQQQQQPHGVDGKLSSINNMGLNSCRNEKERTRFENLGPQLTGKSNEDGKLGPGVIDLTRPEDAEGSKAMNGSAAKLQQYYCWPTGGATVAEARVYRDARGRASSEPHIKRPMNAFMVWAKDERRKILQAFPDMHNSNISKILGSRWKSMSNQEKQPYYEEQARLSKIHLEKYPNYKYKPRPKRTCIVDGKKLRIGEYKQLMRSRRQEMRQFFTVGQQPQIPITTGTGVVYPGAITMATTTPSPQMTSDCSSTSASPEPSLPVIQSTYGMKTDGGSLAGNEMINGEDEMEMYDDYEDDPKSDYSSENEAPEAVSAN
UniProt Q9Y343: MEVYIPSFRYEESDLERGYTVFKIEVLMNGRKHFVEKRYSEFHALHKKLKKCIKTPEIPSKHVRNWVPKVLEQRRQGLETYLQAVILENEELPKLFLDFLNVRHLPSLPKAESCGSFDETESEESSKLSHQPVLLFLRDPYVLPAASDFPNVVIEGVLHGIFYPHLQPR
UniProt Q8N5G0: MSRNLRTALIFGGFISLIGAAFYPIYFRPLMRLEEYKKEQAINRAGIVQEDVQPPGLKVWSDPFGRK
UniProt Q9NXE4: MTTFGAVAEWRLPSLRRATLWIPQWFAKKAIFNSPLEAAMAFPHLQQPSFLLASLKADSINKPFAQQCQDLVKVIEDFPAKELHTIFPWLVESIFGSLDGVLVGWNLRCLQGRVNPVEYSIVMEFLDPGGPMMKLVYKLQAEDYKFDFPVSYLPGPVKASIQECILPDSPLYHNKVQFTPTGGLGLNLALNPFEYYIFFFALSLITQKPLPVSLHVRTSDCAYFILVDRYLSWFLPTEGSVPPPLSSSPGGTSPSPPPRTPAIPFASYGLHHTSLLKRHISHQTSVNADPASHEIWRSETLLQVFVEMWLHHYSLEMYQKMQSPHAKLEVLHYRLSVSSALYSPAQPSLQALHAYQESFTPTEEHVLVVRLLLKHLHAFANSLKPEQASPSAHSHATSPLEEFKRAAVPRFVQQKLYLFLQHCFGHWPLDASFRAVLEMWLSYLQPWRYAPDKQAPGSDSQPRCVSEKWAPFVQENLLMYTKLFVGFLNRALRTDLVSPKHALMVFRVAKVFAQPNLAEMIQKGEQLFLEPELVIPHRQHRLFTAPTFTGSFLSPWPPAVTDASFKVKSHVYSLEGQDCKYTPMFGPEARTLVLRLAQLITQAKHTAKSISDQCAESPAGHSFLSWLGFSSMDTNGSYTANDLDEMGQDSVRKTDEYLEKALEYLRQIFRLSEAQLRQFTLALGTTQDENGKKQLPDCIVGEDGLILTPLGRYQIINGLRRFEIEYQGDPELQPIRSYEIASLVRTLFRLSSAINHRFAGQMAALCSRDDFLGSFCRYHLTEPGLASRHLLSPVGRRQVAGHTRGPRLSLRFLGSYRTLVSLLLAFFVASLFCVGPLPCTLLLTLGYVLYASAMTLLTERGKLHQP
UniProt Q8TEQ0: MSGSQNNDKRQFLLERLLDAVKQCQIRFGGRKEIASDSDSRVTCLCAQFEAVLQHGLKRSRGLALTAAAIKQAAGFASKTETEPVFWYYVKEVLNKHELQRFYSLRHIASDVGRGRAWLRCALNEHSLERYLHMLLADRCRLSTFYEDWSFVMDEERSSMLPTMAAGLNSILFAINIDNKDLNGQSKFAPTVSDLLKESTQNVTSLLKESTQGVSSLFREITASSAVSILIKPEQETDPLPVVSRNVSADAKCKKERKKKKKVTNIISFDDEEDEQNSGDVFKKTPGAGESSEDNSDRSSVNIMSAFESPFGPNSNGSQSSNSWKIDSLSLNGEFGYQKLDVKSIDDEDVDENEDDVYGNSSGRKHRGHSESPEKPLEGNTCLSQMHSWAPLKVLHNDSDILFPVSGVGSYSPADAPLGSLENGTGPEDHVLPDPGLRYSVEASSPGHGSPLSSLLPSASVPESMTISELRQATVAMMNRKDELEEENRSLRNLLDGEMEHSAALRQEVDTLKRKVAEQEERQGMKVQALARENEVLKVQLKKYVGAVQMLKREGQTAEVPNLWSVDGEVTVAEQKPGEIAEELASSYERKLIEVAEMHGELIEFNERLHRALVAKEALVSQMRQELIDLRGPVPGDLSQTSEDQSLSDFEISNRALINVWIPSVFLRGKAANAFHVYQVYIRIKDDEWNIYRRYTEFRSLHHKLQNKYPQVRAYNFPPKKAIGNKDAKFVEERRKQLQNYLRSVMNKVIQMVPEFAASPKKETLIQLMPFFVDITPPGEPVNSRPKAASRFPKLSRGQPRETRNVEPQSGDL

Legend:
Assay in all cases: log2 fold change, soluble protein after heating vs DMSO (PISA); higher = thermal stabilisation; K562 lysate, 10 uM; active = over 0.2 and 3.5 SD of the protein, either way, in both replicates (recomputed)
alvocidib = compound: CN1CC[C@H](c2c(O)cc(O)c3c(=O)cc(-c4ccccc4Cl)oc23)[C@H](O)C1 [alvocidib]
How it was run: (§1)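 Soluble protein was defined as the supernatant remaining after 21,000xg for 90 min, following pooling of heated aliquots and adjustment to 0.5% NP-40 at 4°C. Before that, crude K562 extract at 1 mg/mL protein in PBS pH 7.4 with 1 mM MgCl2 was treated with 10 μM compound for 30 min and heated for 3 min across 48°C-58°C. Quantification used TMTpro 16plex LC-MS/MS with channel sums equalised, and values are log-two fold changes in thermal stability relative to solvent controls from duplicates.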

Tubastatin A = compound: CN1CCc2c(c3ccccc3n2Cc2ccc(C(=O)NO)cc2)C1 [Tubastatin A]
How it was run: as §1

[1] = compound: CNC(=O)C1=CC=CC=C1NC2=NC(=NC=C2Cl)NC3=C(C=C(C=C3)N4CCOCC4)OC
How it was run: as §1

defactinib = compound: CNC(=O)c1ccc(Nc2ncc(C(F)(F)F)c(NCc3nccnc3N(C)S(C)(=O)=O)n2)cc1 [defactinib]
How it was run: as §1

[2] = compound: CNc1nc(-c2ccc3c(N)n[nH]c3c2)cc(N2C[C@@H](C(=O)NC3CCCCC3)CC[C@H]2C)n1
How it was run: as §1

encorafenib = compound: COC(=O)N[C@@H](C)CNc1nccc(-c2cn(C(C)C)nc2-c2cc(Cl)cc(NS(C)(=O)=O)c2F)n1 [encorafenib]
How it was run: as §1

[3] = compound: COC(=O)[C@H](CCSC)NC(=O)C1=C(C=C(C=C1)NC[C@H](CS)N)C2=CC=CC=C2
How it was run: as §1

alisertib = compound: COc1cc(Nc2ncc3c(n2)-c2ccc(Cl)cc2C(c2c(F)cccc2OC)=NC3)ccc1C(=O)O [alisertib]
How it was run: as §1

[4] = compound: COc1cc2nc(-c3cc(F)ccc3O)nc(N[C@@H]3CNC[C@H]3C(C)(C)O)c2cc1OC
How it was run: as §1

gefitinib = compound: COc1cc2ncnc(Nc3ccc(F)c(Cl)c3)c2cc1OCCCN1CCOCC1 [gefitinib]
How it was run: as §1

Measured: log2 fold change

SOD1 (UniProt P00441)
inactive: alvocidib 0.187 | Tubastatin A 0.012 | [1] 0.011 | defactinib 0.015 | [2] -0.111 | encorafenib -0.009 | [3] -0.036 | alisertib 0.026 | [4] -0.024 | gefitinib 0.074

SNTA1 (UniProt Q13424)
inactive: alvocidib 0.027 | Tubastatin A 0.026 | [1] -0.102 | defactinib -0.003 | [2] 0.059 | encorafenib 0.016 | [3] 0.076 | alisertib -0.027 | [4] -0.128 | gefitinib 0.011

SMTN isoform 6 (UniProt P53814)
inactive: alvocidib -0.04 | Tubastatin A -0.019 | [1] 0.071 | defactinib -0.103 | [2] -0.013 | encorafenib -0.002 | [3] -0.085 | alisertib 0.055 | [4] -0.005 | gefitinib 0.005

SNX11 (UniProt Q9Y5W9)
inactive: alvocidib -0.042 | Tubastatin A 0.097 | [1] -0.014 | defactinib -0.038 | [2] 0.018 | encorafenib -0.01 | [3] 0.015 | alisertib -0.009 | [4] -0.017 | gefitinib -0.005

SNF8 (UniProt Q96H20)
inactive: alvocidib -0.026 | Tubastatin A 0.006 | [1] -0.036 | defactinib 0.015 | [2] -0.029 | encorafenib 0.026 | [3] 0.038 | alisertib -0.012 | [4] 0 | gefitinib -0.013

SMYD2 (UniProt Q9NRG4)
inactive: alvocidib 0.159 | Tubastatin A -0.118 | [1] 0.03 | defactinib -0.011 | [2] 0.006 | encorafenib -0.001 | [3] -0.002 | alisertib 0.074 | [4] 0.018 | gefitinib -0.011

SNX3 (UniProt O60493)
inactive: alvocidib -0.001 | Tubastatin A -0.024 | [1] -0.021 | defactinib 0.021 | [2] -0.089 | encorafenib 0.005 | [3] -0.103 | alisertib 0.008 | [4] -0.027 | gefitinib -0.006

SMIM8 (UniProt Q96KF7)
inactive: alvocidib -0.01 | Tubastatin A 0.034 | [1] -0.041 | defactinib 0.034 | [2] 0.066 | encorafenib 0.028 | [3] 0.078 | alisertib 0.062 | [4] 0.014 | gefitinib -0.015

SP6 (UniProt Q3SY56)
inactive: alvocidib 0.253 | Tubastatin A -0.174 | [1] 0.077 | defactinib 0.034 | [2] 0.048 | encorafenib 0.049 | [3] -0.204 | alisertib -0.315 | [4] 0.006 | gefitinib -0.169

SNAP47 (UniProt Q5SQN1)
inactive: alvocidib -0.025 | Tubastatin A -0.048 | [1] 0.001 | [2] -0.001 | encorafenib -0.024 | [3] 0.128 | alisertib 0.04 | gefitinib -0.005

SP4 (UniProt Q02446)
inactive: alvocidib -0.075 | Tubastatin A 0.118 | [1] 0.032 | defactinib 0.057 | [2] 0.008 | encorafenib -0.037 | [3] -0.028 | [4] -0.067

SNX30 (UniProt Q5VWJ9)
inactive: alvocidib -0.012 | Tubastatin A -0.036 | [1] -0.004 | [2] -0.049 | alisertib -0.06 | [4] 0.013 | gefitinib 0.1

SP3 (UniProt Q02447)
inactive: alvocidib 0.075 | Tubastatin A 0.054 | [1] 0.036 | [2] 0.136 | encorafenib 0.011 | [3] 0.003 | alisertib 0.036 | [4] 0.022 | gefitinib -0.173

SORBS3 (UniProt O60504)
inactive: alvocidib 0 | Tubastatin A -0.095 | [1] 0.032 | defactinib -0.062 | [2] 0.059 | encorafenib 0.02 | [3] -0.143 | [4] 0.065

SMPD2 (UniProt O60906)
inactive: alvocidib -0.043 | Tubastatin A 0.088 | [1] -0.787 | [2] -0.034 | encorafenib 0.09 | [3] -0.22 | [4] -0.074

SOHLH2 isoform 3 (UniProt Q9NX45)
inactive: alvocidib -0.014 | Tubastatin A -0.04 | [1] -0.001 | [2] -0.119 | encorafenib 0.047 | [3] -0.032 | alisertib -0.009 | [4] -0.008 | gefitinib 0.066

SNUPN (UniProt O95149)
inactive: alvocidib 0.012 | Tubastatin A 0.028 | [1] -0.173 | defactinib -0.066 | encorafenib 0.006 | [3] 0.155 | alisertib -0.007 | [4] -0.009 | gefitinib 0.076

SMIM1 (UniProt B2RUZ4)
inactive: alvocidib -0.031 | Tubastatin A 0.123 | [1] 0.097 | encorafenib 0.226 | [3] -0.07 | alisertib -0.149 | [4] 0.022 | gefitinib -0.279

Three entries picked at random from the list so far, as already listed:
SORBS3 (UniProt O60504)
inactive: alvocidib 0 | Tubastatin A -0.095 | [1] 0.032 | defactinib -0.062 | [2] 0.059 | encorafenib 0.02 | [3] -0.143 | [4] 0.065

SMIM1 (UniProt B2RUZ4)
inactive: alvocidib -0.031 | Tubastatin A 0.123 | [1] 0.097 | encorafenib 0.226 | [3] -0.07 | alisertib -0.149 | [4] 0.022 | gefitinib -0.279

SMPD2 (UniProt O60906)
inactive: alvocidib -0.043 | Tubastatin A 0.088 | [1] -0.787 | [2] -0.034 | encorafenib 0.09 | [3] -0.22 | [4] -0.074

Further entries follow:

SMR3B (UniProt P02814)
inactive: alvocidib 0.088 | Tubastatin A 0.34 | encorafenib -0.001 | [3] 0.185

SMIM4 (UniProt Q8WVI0)
inactive: alvocidib 0.099 | Tubastatin A 0.008 | alisertib 0.05 | [4] 0.088 | gefitinib 0.025

SOX5 (UniProt P35711)
inactive: alvocidib 0.048 | Tubastatin A -0.113 | [1] -0.219 | defactinib 0.017 | [2] 0.074 | encorafenib 0.034 | [3] -0.025 | [4] -0.104

SMPDL3B (UniProt Q92485)
inactive: alvocidib 0.221 | Tubastatin A 0.04 | defactinib 0.116 | [2] 0.005 | encorafenib -0.081 | [3] -0.029 | [4] -0.044

SMDT1 (UniProt Q9H4I9)
inactive: alvocidib -0.091 | Tubastatin A 0.042 | [1] -0.023 | [2] 0.046 | [4] 0.085

SNRPN isoform 2 (UniProt P63162)
inactive: alvocidib -0.038 | [1] 0.086 | defactinib -0.138 | encorafenib 0.024 | [3] 0.028 | [4] -0.144

SMU1 isoform 2 (UniProt Q2TAY7)
inactive: alvocidib -0.136 | Tubastatin A 0.274 | [1] 0.01 | defactinib -0.115 | encorafenib 0 | [3] 0.011 | alisertib 0.247 | [4] 0.019 | gefitinib -0.077

SNX19 (UniProt Q92543)
inactive: alvocidib 0.022 | Tubastatin A -0.047 | [1] -0.014 | [2] 0.085 | encorafenib 0.03 | [3] 0.047 | alisertib -0.06 | gefitinib 0.134

SMYD4 (UniProt Q8IYR2)
inactive: alvocidib -0.235 | Tubastatin A 0.02 | [1] -0.003 | [2] 0.077

SNAPC2 (UniProt Q13487)
inactive: alvocidib -0.034 | Tubastatin A -0.117 | [1] -0.005 | [2] -0.175 | alisertib 0.014 | gefitinib -0.044

SPA17 (UniProt Q15506)
inactive: alvocidib -0.208 | Tubastatin A 0.021 | defactinib 0.056 | [2] 0.038 | encorafenib -0.007 | [3] -0.032 | [4] -0.038

SMARCA4 isoform 4 (UniProt P51532)
inactive: alvocidib 0.078 | Tubastatin A 0.106 | [1] -0.008 | [2] 0.024 | encorafenib -0.315 | [3] 0.04 | alisertib -0.046 | [4] -0.038 | gefitinib -0.116

SOX6 (UniProt P35712)
inactive: alvocidib -0.01 | Tubastatin A -0.032 | [1] 0.029 | defactinib 0.038 | [2] -0.192 | encorafenib -0.011 | [3] -0.12 | alisertib -0.008 | gefitinib -0.006

SNX24 (UniProt Q9Y343)
inactive: alvocidib 0.005 | Tubastatin A -0.09 | [1] 0.049 | [2] -0.09 | encorafenib 0.035 | [3] -0.072 | alisertib 0.116 | gefitinib 0.175

SMIM20 isoform 2 (UniProt Q8N5G0)
inactive: alvocidib 0.069 | [1] -0.035 | defactinib -0.029 | [2] 0.08 | alisertib -0.001 | [4] -0.057 | gefitinib -0.075

SMPD4 isoform 4 (UniProt Q9NXE4)
inactive: alvocidib 0.066 | Tubastatin A 0.311 | defactinib -0.07 | encorafenib 0.012 | [3] -0.36 | alisertib -0.134 | gefitinib 0.088

SNX29 (UniProt Q8TEQ0)
inactive: alvocidib -0.114 | Tubastatin A -0.324 | [1] -0.038 | encorafenib -0.057 | [3] -0.195 | alisertib -0.055 | gefitinib -0.129

SOGA1 isoform 2 (UniProt O94964)
inactive: alvocidib -0.011 | Tubastatin A -0.064 | [1] -0.017 | defactinib 0.004 | [2] 0.028 | encorafenib 0.066 | [3] 0.195 | alisertib 0.031 | gefitinib 0.017

SNX18 isoform 2 (UniProt Q96RF0)
inactive: alvocidib 0.048 | [1] -0.046 | defactinib -0.04 | encorafenib -0.008 | [3] 0.066 | alisertib -0.169 | [4] -0.181 | gefitinib -0.009
